The experiment addresses voltage-dependent anion channel (VDAC I), endogenous in 293T-TAU441 cells (human (endogenous in 293T)) (UniProt P21796). The experiment is described as follows: co-IP; lysate of 293T-TAU441 cells after arsenite, with and without a 16 T magnetic field; anti-VDAC I antibody (AF1027) on protein A/G magnetic beads, 1 h at room temperature; Western blot for HK and Bax.

The chains behind the UniProt entries cited, without tags or fusion partners.
UniProt P21796: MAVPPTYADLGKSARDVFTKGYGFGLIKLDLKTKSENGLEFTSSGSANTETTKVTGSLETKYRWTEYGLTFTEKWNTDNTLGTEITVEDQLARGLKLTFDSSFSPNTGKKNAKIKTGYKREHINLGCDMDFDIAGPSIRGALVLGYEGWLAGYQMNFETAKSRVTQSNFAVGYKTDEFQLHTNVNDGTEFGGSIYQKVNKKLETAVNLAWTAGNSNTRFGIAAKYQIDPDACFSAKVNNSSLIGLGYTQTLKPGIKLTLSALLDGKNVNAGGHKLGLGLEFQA

Results are given in words; binding and its absence hold for the method and conditions named. In cells and extracts the contact can be indirect. Some results given as binding are weak or reduced against the parent protein; the word gives no strength.

B1: hexokinase (HK), endogenous in 293T-TAU441 cells (enzyme, UniProt P19367 1-917)
chain: MIAAQLLAYYFTELKDDQVKKIDKYLYAMRLSDETLIDIMTRFRKEMKNGLSRDFNPTATVKMLPTFVRSIPDGSEKGDFIALDLGGSSFRILRVQVNHEKNQNVHMESEVYDTPENIVHGSGSQLFDHVAECLGDFMEKRKIKDKKLPVGFTFSFPCQQSKIDEAILITWTKRFKASGVEGADVVKLLNKAIKKRGDYDANIVAVVNDTVGTMMTCGYDDQHCEVGLIIGTGTNACYMEELRHIDLVEGDEGRMCINTEWGAFGDDGSLEDIRTEFDREIDRGSLNPGKQLFEKMVSGMYLGELVRLILVKMAKEGLLFEGRITPELLTRGKFNTSDVSAIEKNKEGLHNAKEILTRLGVEPSDDDCVSVQHVCTIVSFRSANLVAATLGAILNRLRDNKGTPRLRTTVGVDGSLYKTHPQYSRRFHKTLRRLVPDSDVRFLLSESGSGKGAAMVTAVAYRLAEQHRQIEETLAHFHLTKDMLLEVKKRMRAEMELGLRKQTHNNAVVKMLPSFVRRTPDGTENGDFLALDLGGTNFRVLLVKIRSGKKRTVEMHNKIYAIPIEIMQGTGEELFDHIVSCISDFLDYMGIKGPRMPLGFTFSFPCQQTSLDAGILITWTKGFKATDCVGHDVVTLLRDAIKRREEFDLDVVAVVNDTVGTMMTCAYEEPTCEVGLIVGTGSNACYMEEMKNVEMVEGDQGQMCINMEWGAFGDNGCLDDIRTHYDRLVDEYSLNAGKQRYEKMISGMYLGEIVRNILIDFTKKGFLFRGQISETLKTRGIFETKFLSQIESDRLALLQVRAILQQLGLNSTCDDSILVKTVCGVVSRRAAQLCGAGMAAVVDKIRENRGLDRLNVTVGVDGTLYKLHPHFSRIMHQTVKELSPKCNVSFLLSEDGSGKGAALITAVGVRLRTEASS
Regarding B1, the binding result is listed as “binds”.

Source of the values: article PMC10204748.
